Experimental data published in PMC10697876.
No constants are given. Whether binding was seen depends on the method and setting. Binding seen in cells or lysates may run through a third protein. Some binding calls cover weakened binding; strength is not graded here.

By UniProt entry, the sequences of proteins in these tests, tags left out.
UniProt O88569: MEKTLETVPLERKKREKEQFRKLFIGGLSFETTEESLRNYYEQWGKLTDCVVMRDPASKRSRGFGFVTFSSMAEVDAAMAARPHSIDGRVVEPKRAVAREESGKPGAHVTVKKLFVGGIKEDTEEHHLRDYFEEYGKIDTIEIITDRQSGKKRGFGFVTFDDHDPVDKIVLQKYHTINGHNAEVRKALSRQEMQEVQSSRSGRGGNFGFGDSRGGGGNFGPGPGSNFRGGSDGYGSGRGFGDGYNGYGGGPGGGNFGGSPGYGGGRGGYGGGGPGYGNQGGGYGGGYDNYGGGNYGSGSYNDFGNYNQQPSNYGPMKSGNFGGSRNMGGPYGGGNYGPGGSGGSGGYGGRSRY

Columns and labels:
[1] = biological target: HNRNPA2B1 (mouse (endogenous in RAW264.7)) (UniProt O88569); assay: co-IP; RAW264.7 cells treated with IL-4 (20 ng/ml) plus IL-10 (10 ng/ml) for 24 h (M2 macrophages); immunoprecipitation, Western blot; IgG as control; no RNase
[2] = biological target: HNRNPA2B1 (mouse (endogenous in RAW264.7)) (UniProt O88569); assay: co-IP; RAW264.7 cells treated with IL-4 plus IL-10 for 24 h; after immunoprecipitation the samples were washed and incubated with RNase; Western blot

- binding [1]: binds
- binding [2]: binds
B1: microRNA microprocessor complex protein DGCR8 (protein, UniProt Q9EQM6 1-773)
chain: METYESPSPLPREPAGEAMMENRACPFQVLPHEQSPPPPLQTSSDAEVMDVGSGGDGQSEPPADDPFNFYGASLLSKGSFSKGRLLIDPNCSGHSPRTARHAPAVRKFSPDLKLLKDVKISVSFTESCRSKDRKVLYTGVERSTRPECGQLLSPVSGDVHACPFGGSVGNGVGLGGESADKKDEENELDQEKRVEYAVLDELEDFTDNLELDEEGTGGFTAKAIVQRDRVDEEALNFSYEDDFDNDVDALLEEGLCAPKKRRMEEKYGGDSDHPSDGETSVQPMMTKIKTVLKSRGRPPTEPLPDGWIMTFHNSGVPVYLHRESRVVTWSRPYFLGTGSIRKHDPPLSSIPCLHYKKMKDNEEREQNCDLAPSGEVSPVKPLGRSAELDFPLEEPDSMGGDSGSMDEKDPLGAEAAAGALGQVKAKVEVCKDESVDLEEFRNYLEKRFDFEQVTVKKFRTWAERRQFNREMKRKQAESERPILPANQKLITLSVQDAPTKKEFVINPNGKSEVCILHEYMQRVLKVRPVYNFFECENPSEPFGASVTIDGVTYGSGTASSKKLAKNKAARATLEILIPDFVKQTSEEKPKDSEELEYFNHISIEDSRVYELTSKAGLLSPYQILHECLKRNHGMGDTSIKFEVVPGKNQKSEYVMACGKHTVRGWCKNKRVGKQLASQKILQLLHPHVKNWGSLLRMYGRESSKMVKQETSDKSVIELQQYAKKNRPNLHILSKLQEEMKRLAAEREETRKKPKMSIVASAQPGGEPLCTVDV
